Article PMC9448326

Chains of the proteins cited; added tags and fusions are not shown.
UniProt P17302: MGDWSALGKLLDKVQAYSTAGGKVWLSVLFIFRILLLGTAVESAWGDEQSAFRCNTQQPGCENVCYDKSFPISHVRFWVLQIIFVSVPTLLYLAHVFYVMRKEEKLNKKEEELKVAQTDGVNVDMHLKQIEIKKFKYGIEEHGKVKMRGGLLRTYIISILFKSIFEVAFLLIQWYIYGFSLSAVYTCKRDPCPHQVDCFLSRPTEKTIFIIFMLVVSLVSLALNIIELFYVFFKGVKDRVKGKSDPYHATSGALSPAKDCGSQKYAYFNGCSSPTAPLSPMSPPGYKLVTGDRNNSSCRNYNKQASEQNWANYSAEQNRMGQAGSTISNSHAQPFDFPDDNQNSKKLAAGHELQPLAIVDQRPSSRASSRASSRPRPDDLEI
UniProt P62491: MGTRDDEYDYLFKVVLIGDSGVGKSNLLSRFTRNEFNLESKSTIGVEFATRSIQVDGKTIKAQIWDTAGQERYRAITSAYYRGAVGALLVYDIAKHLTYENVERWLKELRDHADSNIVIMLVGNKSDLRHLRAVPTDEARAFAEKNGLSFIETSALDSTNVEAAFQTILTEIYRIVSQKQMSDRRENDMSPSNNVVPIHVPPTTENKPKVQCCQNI
UniProt P61006: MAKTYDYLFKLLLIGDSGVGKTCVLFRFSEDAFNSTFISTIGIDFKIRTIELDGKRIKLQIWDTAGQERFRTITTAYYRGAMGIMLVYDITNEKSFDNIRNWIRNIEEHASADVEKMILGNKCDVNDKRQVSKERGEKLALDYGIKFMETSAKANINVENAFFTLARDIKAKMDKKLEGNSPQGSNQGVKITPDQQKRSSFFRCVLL

Target: Gap junction protein α1 (GJA1), endogenous in human RPE1 cells (human (endogenous in RPE1)) (UniProt P17302)
Assay: affinity purification with mass spectrometry; human RPE1 lysate (TBS, 1% Triton X-100, 10% glycerol) incubated overnight at 4°C with anti-GJA1 antibody- or rabbit serum-conjugated Protein G Mag Sepharose beads; low-pH elution; Orbitrap mass spectrometry

Row | binding | Substance
1 | binds | Rab11a, endogenous in human RPE1 cells (hit of the GJA1 IP-MS) (from UniProt P62491 1-216)
2 | binds | Rab8a, endogenous in human RPE1 cells (hit of the GJA1 IP-MS) (from UniProt P61006 1-207)

These are yes or no findings as the source states them, for the method shown. Binding seen in cells or lysates may run through a third protein. Here binding means that the protein was enriched with, or labelled near, the bait; the list need not be complete.
